Results reported in the supplement of paper PMC6411743.
± gives the standard deviation of the averaged measurements. Only a part is listed here, and it is no random draw.

Protein sequences, listed by entry. Tags and fused reporters are not part of them. Lines headed by an entry give the natural chain unless they say otherwise; changes in a name come on top.
UniProt Q8WUH1: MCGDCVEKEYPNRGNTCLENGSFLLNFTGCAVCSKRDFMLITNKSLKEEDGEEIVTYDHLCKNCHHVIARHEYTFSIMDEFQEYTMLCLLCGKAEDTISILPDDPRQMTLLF
UniProt Q9NUI1: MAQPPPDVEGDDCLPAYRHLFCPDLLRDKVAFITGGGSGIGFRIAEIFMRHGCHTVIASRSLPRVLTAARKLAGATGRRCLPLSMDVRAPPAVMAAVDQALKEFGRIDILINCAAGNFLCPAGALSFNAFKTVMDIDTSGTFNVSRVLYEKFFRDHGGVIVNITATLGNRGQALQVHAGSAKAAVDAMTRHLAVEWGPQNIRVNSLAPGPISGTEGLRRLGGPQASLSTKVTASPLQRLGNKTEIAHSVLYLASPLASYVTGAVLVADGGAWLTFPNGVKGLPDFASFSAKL
UniProt Q8ND83, whole entry: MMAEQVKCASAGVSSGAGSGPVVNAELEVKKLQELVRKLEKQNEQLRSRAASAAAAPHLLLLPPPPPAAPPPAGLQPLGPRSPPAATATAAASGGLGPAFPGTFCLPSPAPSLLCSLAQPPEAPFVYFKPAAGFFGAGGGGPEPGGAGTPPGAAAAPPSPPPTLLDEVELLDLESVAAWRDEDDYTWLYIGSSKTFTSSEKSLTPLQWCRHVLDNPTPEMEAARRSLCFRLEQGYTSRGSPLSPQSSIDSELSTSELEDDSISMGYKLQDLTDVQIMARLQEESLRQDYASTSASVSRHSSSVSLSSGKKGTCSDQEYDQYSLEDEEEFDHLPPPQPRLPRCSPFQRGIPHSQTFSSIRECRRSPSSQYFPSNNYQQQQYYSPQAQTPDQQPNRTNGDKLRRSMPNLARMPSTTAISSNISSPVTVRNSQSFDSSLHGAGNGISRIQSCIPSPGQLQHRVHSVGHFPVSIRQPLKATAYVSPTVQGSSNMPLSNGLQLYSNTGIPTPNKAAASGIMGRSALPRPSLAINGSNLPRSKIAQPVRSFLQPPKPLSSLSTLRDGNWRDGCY
UniProt Q8IWA4: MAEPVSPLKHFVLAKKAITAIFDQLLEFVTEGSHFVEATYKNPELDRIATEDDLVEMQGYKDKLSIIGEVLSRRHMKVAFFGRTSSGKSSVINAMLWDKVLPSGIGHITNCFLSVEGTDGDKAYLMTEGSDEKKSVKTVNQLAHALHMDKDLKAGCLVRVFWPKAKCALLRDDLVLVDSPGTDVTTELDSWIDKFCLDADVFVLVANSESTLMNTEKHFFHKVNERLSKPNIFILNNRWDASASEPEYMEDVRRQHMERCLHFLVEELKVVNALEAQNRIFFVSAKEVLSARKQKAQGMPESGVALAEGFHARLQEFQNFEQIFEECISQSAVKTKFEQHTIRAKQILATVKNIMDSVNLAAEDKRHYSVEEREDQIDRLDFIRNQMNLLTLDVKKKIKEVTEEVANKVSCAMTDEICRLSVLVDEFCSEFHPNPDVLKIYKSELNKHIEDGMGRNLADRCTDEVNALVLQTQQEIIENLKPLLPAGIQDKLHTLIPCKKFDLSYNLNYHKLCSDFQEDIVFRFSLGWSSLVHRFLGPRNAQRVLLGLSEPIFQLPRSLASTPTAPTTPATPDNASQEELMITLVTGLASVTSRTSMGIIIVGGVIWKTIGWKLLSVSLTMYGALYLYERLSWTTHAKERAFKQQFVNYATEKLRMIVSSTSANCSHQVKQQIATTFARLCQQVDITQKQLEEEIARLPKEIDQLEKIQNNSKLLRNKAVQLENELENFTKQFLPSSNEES
UniProt Q9Y624: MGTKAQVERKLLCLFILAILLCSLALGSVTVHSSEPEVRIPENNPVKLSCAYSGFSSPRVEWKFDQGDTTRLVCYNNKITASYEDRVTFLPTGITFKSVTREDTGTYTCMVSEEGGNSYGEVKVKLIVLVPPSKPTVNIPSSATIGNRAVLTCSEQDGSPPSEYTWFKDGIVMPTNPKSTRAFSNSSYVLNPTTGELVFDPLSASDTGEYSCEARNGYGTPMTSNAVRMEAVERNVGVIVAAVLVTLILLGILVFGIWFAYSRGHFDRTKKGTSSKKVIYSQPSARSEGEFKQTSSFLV
UniProt Q8N2M8: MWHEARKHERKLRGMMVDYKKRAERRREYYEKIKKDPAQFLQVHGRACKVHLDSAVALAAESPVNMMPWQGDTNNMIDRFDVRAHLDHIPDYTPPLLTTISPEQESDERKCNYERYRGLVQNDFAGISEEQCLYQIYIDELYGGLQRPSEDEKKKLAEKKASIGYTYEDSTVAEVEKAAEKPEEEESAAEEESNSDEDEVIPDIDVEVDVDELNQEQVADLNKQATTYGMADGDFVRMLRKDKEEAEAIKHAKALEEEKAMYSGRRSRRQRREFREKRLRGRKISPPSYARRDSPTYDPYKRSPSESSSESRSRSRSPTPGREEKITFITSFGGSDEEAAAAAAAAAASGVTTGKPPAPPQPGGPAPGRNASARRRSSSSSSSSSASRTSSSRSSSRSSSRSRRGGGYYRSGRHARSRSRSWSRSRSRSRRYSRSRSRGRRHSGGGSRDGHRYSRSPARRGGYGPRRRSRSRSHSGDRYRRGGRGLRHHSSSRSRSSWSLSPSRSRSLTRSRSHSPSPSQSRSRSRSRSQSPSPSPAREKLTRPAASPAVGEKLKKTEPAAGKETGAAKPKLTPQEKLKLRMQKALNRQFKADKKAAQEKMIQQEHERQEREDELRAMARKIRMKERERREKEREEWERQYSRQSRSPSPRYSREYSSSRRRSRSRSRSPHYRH
UniProt Q9P2E9: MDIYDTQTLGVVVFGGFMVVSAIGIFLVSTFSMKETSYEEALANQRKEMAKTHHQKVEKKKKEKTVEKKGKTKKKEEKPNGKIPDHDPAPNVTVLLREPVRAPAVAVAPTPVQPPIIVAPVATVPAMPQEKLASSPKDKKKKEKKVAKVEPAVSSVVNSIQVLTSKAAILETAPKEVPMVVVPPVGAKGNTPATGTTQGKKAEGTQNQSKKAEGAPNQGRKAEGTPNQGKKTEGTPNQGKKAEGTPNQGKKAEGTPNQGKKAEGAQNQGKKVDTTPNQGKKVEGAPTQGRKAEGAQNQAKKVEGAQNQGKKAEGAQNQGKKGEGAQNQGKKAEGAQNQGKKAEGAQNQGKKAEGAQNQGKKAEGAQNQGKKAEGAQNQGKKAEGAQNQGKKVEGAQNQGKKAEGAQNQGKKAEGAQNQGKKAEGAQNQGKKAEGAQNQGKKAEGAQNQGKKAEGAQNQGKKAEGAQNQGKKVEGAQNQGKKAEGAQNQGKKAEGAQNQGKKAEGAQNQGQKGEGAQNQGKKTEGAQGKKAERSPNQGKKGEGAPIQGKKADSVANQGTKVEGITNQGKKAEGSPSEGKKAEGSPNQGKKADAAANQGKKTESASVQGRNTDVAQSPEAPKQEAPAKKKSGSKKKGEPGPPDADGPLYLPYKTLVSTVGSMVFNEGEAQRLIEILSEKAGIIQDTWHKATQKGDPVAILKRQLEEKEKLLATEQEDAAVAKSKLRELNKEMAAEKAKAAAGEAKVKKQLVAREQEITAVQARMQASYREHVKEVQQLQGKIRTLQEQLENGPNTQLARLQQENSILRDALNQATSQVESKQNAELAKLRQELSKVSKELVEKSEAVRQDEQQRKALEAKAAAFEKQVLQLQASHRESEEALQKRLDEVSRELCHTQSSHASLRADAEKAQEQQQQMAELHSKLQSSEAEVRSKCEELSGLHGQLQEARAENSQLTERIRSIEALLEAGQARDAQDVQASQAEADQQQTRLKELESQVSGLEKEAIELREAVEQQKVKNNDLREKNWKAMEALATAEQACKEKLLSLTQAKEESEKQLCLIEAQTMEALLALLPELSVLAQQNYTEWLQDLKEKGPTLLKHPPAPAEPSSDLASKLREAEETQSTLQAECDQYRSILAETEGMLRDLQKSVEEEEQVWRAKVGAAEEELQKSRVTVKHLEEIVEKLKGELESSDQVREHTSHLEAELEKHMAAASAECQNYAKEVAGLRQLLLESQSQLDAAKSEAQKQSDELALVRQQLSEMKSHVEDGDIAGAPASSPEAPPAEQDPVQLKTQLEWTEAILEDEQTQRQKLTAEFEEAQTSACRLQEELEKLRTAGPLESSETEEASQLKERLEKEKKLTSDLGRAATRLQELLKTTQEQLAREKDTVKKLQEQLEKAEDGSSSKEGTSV

Compound: Nc1ncnc2c1ncn2[C@@H]1O[C@H](COP(=O)(O)OP(=O)(O)NP(=O)(O)O)[C@@H](O)[C@H]1O [adenylyl imidodiphosphate]
Experiment: NP40-soluble protein abundance relative to vehicle (solubility fold change) (ratio); higher = more soluble protein in presence of AMP-PNP
How it was run: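 Eight concentrations, 0.1 to 10 mM, were tested on Jurkat crude lysate for 10 min at room temperature and then 3 min at 37 °C, in three independent experiments. The lysate was solubilised with 0.8% NP40 and benzonase, ultracentrifuged, and the supernatant TMT-labelled for LC-MS/MS. Each value is the fold change against the detergent-processed vehicle in its own replicate, from vsn-normalised intensities.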

Target	NP40-soluble protein abundance (concentration: 1mM)	NP40-soluble protein abundance (concentration: 2mM)	NP40-soluble protein abundance (concentration: 4mM)	NP40-soluble protein abundance (concentration: 6mM)	NP40-soluble protein abundance (concentration: 8mM)	NP40-soluble protein abundance (concentration: 10mM)
A0A0C4DGJ7 (UniProt Q8WUH1)	0.989 ± 0.017	0.965 ± 0.056	0.9939 ± 0.0022	0.9571 ± 0.0027	0.983 ± 0.024	0.9432 ± 0.0042
A0A0J9YXZ6|A0A0J9YY83|Q4VXZ8 and related entries (UniProt Q9NUI1)	1 ± 0.063	0.967 ± 0.034	1.02 ± 0.032	1.024 ± 0.0062	1.06 ± 0.013	1.04 ± 0.041
A0A0A0MSS3|Q5T6P1 and related entries (UniProt Q8ND83)	1.06 ± 0.016	1.05 ± 0.091	1.038 ± 0.0018	1.04 ± 0.017	1.05 ± 0.021	1.05 ± 0.056
A0A0C4DFN1|Q8IWA4 (UniProt Q8IWA4)	0.999 ± 0.019	1.02 ± 0.012	1.01 ± 0.029	0.979 ± 0.022	0.986 ± 0.023	1 ± 0.049
A0A087WY82|Q9Y624 (UniProt Q9Y624)	1.02 ± 0.057	1.05 ± 0.079	0.987 ± 0.031	0.994 ± 0.033	0.987 ± 0.02	1 ± 0.052
A0A0A0MQS2|F5H0Q6 (UniProt Q8N2M8)	1.06 ± 0.049	1.13 ± 0.083	1.04 ± 0.064	1.06 ± 0.1	1.04 ± 0.043	1.06 ± 0.015
A0A0A0MRV0|Q9P2E9 (UniProt Q9P2E9)	1.01 ± 0.048	1.11 ± 0.075	0.977 ± 0.046	0.983 ± 0.033	0.953 ± 0.024	0.97 ± 0.029
